According to the supplement of paper PMC8256030:
Values joined by “and” are separate entries in the source; they are usually repeats but may differ in a detail not shown here. Identical values can stand only once. The list shows a part of the results. Single values are uncertain here, since repeats match poorly.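 HEK293T cells were given each compound shortly before transfection with a reporter in which red mCherry is followed by the SARS-CoV-2 frameshift element and then GFP in the −1 frame, so GFP appears only after frameshifting.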

What follows are compounds tested on HEK293T (assay: percent viability (nuclei count) relative to control; higher = more viable cells). Conditions: 10 µM; 24 h.
Work on `CNCC12CCC(c3ccccc31)c1ccccc12` [benzoctamine] yielded a percent viability of 92.6%.
Work on `Oc1ccc2[nH]cc(CCCCN3CC=C(c4ccccc4)CC3)c2c1` [roxindole] yielded a percent viability of 181%.
`NC(=O)CN1CCCC1=O` [piracetam] showed a percent viability of 293%.
`CCNC1C2CCC(C2)C1c1ccccc1` (stereo unspecified) [fencamfamin] was tested, and the percent viability was 245%.

These compounds were tested on SARS-CoV-2 -1 PRF reporter mCherry-FSE-GFP(-1) (assay: mCherry (red) intensity as percent of control; higher = higher upstream reporter expression). Conditions: 10 µM; 24 h; HEK293T.
Work on `C[C@]12CCC(=O)C=C1C=C[C@@H]1[C@@H]2CC[C@@]2(C)[C@H]1CC[C@@]2(O)CCC(=O)O` yielded a mCherry of 113%.
Work on `CN1C2CC(OC(=O)C(CO)c3ccccc3)CC1C(O)C2` (stereo unspecified) yielded a mCherry of 103%.
For `COc1cc([C@@H]2c3cc4c(cc3[C@H](O)[C@H]3COC(=O)[C@H]23)OCO4)cc(OC)c1OC`, the mCherry was 74.4%.
For `CCCN1CCO[C@@H]2c3cc(O)ccc3CC[C@H]21` [naxagolide], the mCherry was 49.9%.
`C#Cc1cncc([C@@H]2CCCN2C)c1` [altinicline] showed a mCherry of 61.2%.
`CC[C@@]1([C@@H]2O[C@@H]([C@H]3O[C@@](O)(CO)[C@H](C)C[C@@H]3C)C[C@@H]2C)CC[C@H]([C@]2(C)CC[C@]3(C[C@H](O)[C@@H](C)[C@@H]([C@@H](C)[C@@H](OC)[C@H](C)C(=O)O)O3)O2)O1` was tested, and the mCherry was 110%.
`OCCN(CCO)CCO` [trolamine] was tested, and the mCherry was 56%.
`Nc1nc(N)nc(Nc2ccc([As]3SCC(CO)S3)cc2)n1` (stereo unspecified) [melarsoprol] was tested, and the mCherry was 176%.
In the case of `C1CCc2nnnn2CC1` [pentetrazol], the mCherry is reported as 102%.
Work on `C[C@@H]1O[C@@H](O[C@H]2C[C@@H](O)[C@]3(CO)[C@H]4[C@H](O)C[C@]5(C)[C@@H](C6=CC(=O)OC6)CC[C@]5(O)[C@@H]4CC[C@]3(O)C2)[C@H](O)[C@H](O)[C@H]1O` yielded a mCherry of 14.9%.
Work on `CO[C@@]12CC[C@@]3(C[C@@H]1[C@](C)(O)C(C)(C)C)[C@H]1Cc4ccc(O)c5c4[C@@]3(CCN1CC1CC1)[C@H]2O5` [Buprenex] yielded a mCherry of 80%.
`CN1C(=O)C(O)N=C(c2ccccc2)c2cc(Cl)ccc21` (stereo unspecified) [temazepam] gave a mCherry of 48.6%.
With `O=C(CCCN1CCC(n2c(=O)[nH]c3ccccc32)CC1)c1ccc(F)cc1` [benperidol] the mCherry was 84.3%.
Compound `CC(C)NCC(O)c1cccc(O)c1` (stereo unspecified) [metaterol] has a mCherry of 63.3%.
`CCCOC(=O)[C@H]1[C@@H](OC(=O)c2ccccc2)C[C@@H]2CC[C@H]1N2C` was tested, and the mCherry was 93.5%.
Work on `CCC(=O)O[C@H]1CC[C@H]2[C@@H]3CCC4=CC(=O)CC[C@]4(C)[C@H]3CC[C@]12C` yielded a mCherry of 73.3%.
With `O=C(NC(=O)c1c(F)cccc1F)Nc1ccc(Cl)c(Oc2ncc(C(F)(F)F)cc2Cl)c1` [fluazuron] the mCherry was 127%.
Compound `Nc1ncnc2c1ncn2CCOCP(=O)(O)O` [adefovir] has a mCherry of 80%.
`CC(C)(N)CC12CC3CC(CC(C3)C1)C2` [somantadine] gave a mCherry of 80.4%.
With `CC(=O)O[C@H]1C[C@H](O[C@H]2[C@@H](O)C[C@H](O[C@H]3[C@@H](O)C[C@H](O[C@H]4CC[C@@]5(C)[C@H](CC[C@@H]6[C@@H]5C[C@@H](O)[C@]5(C)[C@@H](C7=CC(=O)OC7)CC[C@]65O)C4)O[C@@H]3C)O[C@@H]2C)O[C@H](C)[C@H]1O[C@@H]1O[C@H](CO)[C@@H](O)[C@H](O)[C@H]1O` [lanatoside C] the mCherry was 13.8%.
With `CCC1(c2cccc(O)c2)CCCCN(C)C1` (stereo unspecified) [meptazinol] the mCherry was 66.8%.
`COc1ccc2c3c1O[C@H]1[C@@H](O)C=C[C@H]4[C@@H](C2)NCC[C@@]341` [norcodeine] was tested, and the mCherry was 104%.
In the case of `CCN(CC)C(C)C(=O)c1ccccc1` (stereo unspecified) [amfepramone], the mCherry is reported as 88.8%.
In the case of `CNC1(c2ccccc2Cl)CCCCC1=O` (stereo unspecified) [ketamine], the mCherry is reported as 90.8%.
For `Cc1cccc(C(C)c2c[nH]cn2)c1C` (stereo unspecified) [medetomidine], the mCherry was 86.8%.
In the case of `C[N+](C)(C)CCCCCCCCCC[N+](C)(C)C` [decamethonium bromide], the mCherry is reported as 90.4% and 89.8%.
Work on `CC[C@@H](CO)NC(=O)[C@@H]1C=C2c3cccc4[nH]cc(c34)C[C@H]2N(C)C1` [methylergometrine] yielded a mCherry of 112%.
With `COC(=O)c1cncn1C(C)c1ccccc1` (stereo unspecified) [metomidate] the mCherry was 79.8%.
`CNC(=O)NC(O)C(Cl)(Cl)Cl` (stereo unspecified) [mecloralurea] was tested, and the mCherry was 142%.
`CNCC(O)c1cc(OC)c(O)c(OC)c1` (stereo unspecified) [dimetofrine] was tested, and the mCherry was 58.7%.
`C[C@]1(O)CC[C@H]2[C@@H]3CCC4=CC(=O)CC[C@]4(C)[C@@]3(F)[C@@H](O)C[C@@]21C` [fluoxymesterone] showed a mCherry of 102%.
Work on `N[C@@H](Cc1ccc(N(CCCl)CCCl)cc1)C(=O)O` [Melphalan] yielded a mCherry of 34.2%.
